The IC50 is the point on the concentration scale where inhibition reaches its midpoint.

Protein sequences, listed by entry. Tags and fused reporters are not part of them. Lines headed by an entry give the natural chain unless they say otherwise; changes in a name come on top.
UniProt Q9UBU3: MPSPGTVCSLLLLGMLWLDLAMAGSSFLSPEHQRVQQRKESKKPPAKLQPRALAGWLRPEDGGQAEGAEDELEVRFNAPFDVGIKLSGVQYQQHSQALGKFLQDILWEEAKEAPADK

For part of these data: Negatives hold for the conditions tested. For part of these data: Construct, isoform or probe ends are uncertain for at least one entry.

Data set [1] concerns the target D-octanoyl-ghrelin (all-D enantiomer) (UniProt Q9UBU3). Nature of the data set: pull-down. The note with it: L-RNA (all positions, Spiegelmer), 5 uM biotinylated D-ghrelin, same buffer, 37 C, enantiomer control, synthetic protein, protein details: synthetic D-peptide, octanoylated, label: 32P 5', synthetic backbone, mirror-image nucleic acid, variant of L-NOX-B11.
Data set [2] relates to octanoyl-ghrelin (1-10) (Homo sapiens). The experiment in a line: activity in cells. The note with it: L-RNA (all positions, Spiegelmer); inhibition of calcium release in CHO GHS-R1a cells, 5 nM peptide; synthetic protein; synthetic backbone; mirror-image nucleic acid.
The test system of data set [3] is octanoyl-ghrelin (1-5) (Homo sapiens). The experiment in a line: activity in cells. The settings on record: L-RNA (all positions, Spiegelmer); inhibition of calcium release in CHO GHS-R1a cells, 5 nM peptide; synthetic protein; synthetic backbone; mirror-image nucleic acid.
In data set [4] the target is octanoyl-ghrelin (full-length) (UniProt Q9UBU3). Nature of the data set: activity in cells. The settings on record: L-RNA (all positions, Spiegelmer); inhibition of calcium release in CHO GHS-R1a cells, 5 nM peptide; synthetic protein; synthetic backbone; mirror-image nucleic acid.
Data set [5] concerns desoctanoyl-ghrelin (1-5) (Homo sapiens). Nature of the data set: competition with a labelled probe. The settings on record: L-RNA (all positions, Spiegelmer); desoctanoyl-ghrelin (1-5) does not compete; CHO GHS-R1a calcium assay; synthetic protein; synthetic backbone; mirror-image nucleic acid.
Data set [6] has as its target desoctanoyl-ghrelin (full-length) (UniProt Q9UBU3). Nature of the data set: competition with a labelled probe. The settings on record: L-RNA (all positions, Spiegelmer); 300 nM desoctanoyl-ghrelin (30-fold excess) does not compete for inhibition of 10 nM octanoyl-ghrelin by 30 nM L-NOX-B11; CHO GHS-R1a calcium assay; synthetic protein; protein details: synthetic L-peptide, no octanoyl group (Bachem); synthetic backbone; mirror-image nucleic acid.

Turning to “CGUGUGAGGCAAUAAAACUUAAGUCCGAAGGUAACCAAUCCUACACG [L-NOX-B11 (32P-labelled)]”, in data set [1], the binding result is “no binding”.
Consider “CGUGUGAGGCAAUAAAACUUAAGUCCGAAGGUAACCAAUCCUACACG [L-NOX-B11]”, for which the figures for the IC50 in data set [2], in data set [3] and in data set [4] were 9 nM, 5 nM and 7 nM, respectively. For the same sequence, the binding result in data set [5] and in data set [6] was “no binding” in each case.

Source of the values: patent publication US20070031840.
